From paper PMC10277598
No constants are given. Whether binding was seen depends on the method and setting. In cells and extracts the contact can be indirect. A yes stands for co-enrichment or nearness to the bait. Other partners may have been found. Tags and fused reporters may be left off the sequences shown.

Molecular target: T1, His6-tagged BarA (Escherichia coli) (UniProt P0AEC5)
T1 sequence: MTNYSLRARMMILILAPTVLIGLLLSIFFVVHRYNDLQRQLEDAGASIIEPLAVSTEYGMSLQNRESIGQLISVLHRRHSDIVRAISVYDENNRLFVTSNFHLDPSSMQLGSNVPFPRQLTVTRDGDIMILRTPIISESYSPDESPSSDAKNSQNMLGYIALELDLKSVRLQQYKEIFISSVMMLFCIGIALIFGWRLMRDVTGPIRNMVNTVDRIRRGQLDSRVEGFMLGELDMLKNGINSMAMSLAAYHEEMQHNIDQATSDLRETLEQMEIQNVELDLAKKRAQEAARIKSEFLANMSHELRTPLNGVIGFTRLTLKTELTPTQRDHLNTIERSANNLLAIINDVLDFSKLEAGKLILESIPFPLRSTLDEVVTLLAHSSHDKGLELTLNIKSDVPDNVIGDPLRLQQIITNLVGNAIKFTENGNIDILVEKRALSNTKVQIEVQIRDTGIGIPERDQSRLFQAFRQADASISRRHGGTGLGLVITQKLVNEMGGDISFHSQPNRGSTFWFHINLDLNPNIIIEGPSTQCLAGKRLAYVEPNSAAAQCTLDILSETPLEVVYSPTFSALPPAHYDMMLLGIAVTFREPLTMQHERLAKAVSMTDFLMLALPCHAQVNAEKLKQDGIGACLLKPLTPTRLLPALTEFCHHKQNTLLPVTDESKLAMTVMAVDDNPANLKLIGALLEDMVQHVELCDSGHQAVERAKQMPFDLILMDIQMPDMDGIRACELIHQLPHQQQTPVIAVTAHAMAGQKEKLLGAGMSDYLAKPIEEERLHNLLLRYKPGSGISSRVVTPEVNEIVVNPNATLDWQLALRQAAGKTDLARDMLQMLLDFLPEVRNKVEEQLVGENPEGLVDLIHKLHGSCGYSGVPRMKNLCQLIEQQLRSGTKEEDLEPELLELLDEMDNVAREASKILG
Test: affinity purification with mass spectrometry; in vivo cross-linking with 1% formaldehyde for 10 min at 37 °C; His6-BarA as bait purified under denaturing conditions (8 M urea) on Ni-NTA agarose; cross-links reversed; copurified proteins identified by LC-MS/MS; control strain without the His6-BarA plasmid

- binding: binds
B1: HflK (protein, UniProt P0ABC7 1-419)
chain: MAWNQPGNNGQDRDPWGSSKPGGNSEGNGNKGGRDQGPPDLDDIFRKLSKKLGGLGGGKGTGSGGGSSSQGPRPQLGGRVVTIAAAAIVIIWAASGFYTIKEAERGVVTRFGKFSHLVEPGLNWKPTFIDEVKPVNVEAVRELAASGVMLTSDENVVRVEMNVQYRVTNPEKYLYSVTSPDDSLRQATDSALRGVIGKYTMDRILTEGRTVIRSDTQRELEETIRPYDMGITLLDVNFQAARPPEEVKAAFDDAIAARENEQQYIREAEAYTNEVQPRANGQAQRILEEARAYKAQTILEAQGEVARFAKLLPEYKAAPEITRERLYIETMEKVLGNTRKVLVNDKGGNLMVLPLDQMLKGGNAPAAKSDNGASNLLRLPPASSSTTSGASNTSSTSQGDIMDQRRANAQRNDYQRQGE
